# Measurements reported in PubChem BioAssay AID1508597 (Cure First, 2020).
# Screen: 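Genes whose silencing sensitises or protects ovarian cancer cells against rucaparib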 (primary screen)
# System: human ovarian carcinoma lines grown from tumours: OCI-P5x (papillary serous) and OCI-C5x (clear cell)
# Knock-down reagent: siRNA pool against human genes, 1.25 pmol siRNA per well
# Timing: 72 h or 96 h, depending on the cell culture
# Challenge: rucaparib 20 µM (about IC30) or vehicle, present until read-out
# Rucaparib or vehicle: Rucaparib
# Cell line: OCI-P5x (serous)
# Measured: 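ATP luminescence measured at 72 or 96 h according to the culture, then normalised and expressed as percent viability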
# Reading the numbers: viability, normalised: higher = more viable cells remaining
# Hit rule: 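Active when normalised viability falls below 80 percent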
# Meaning of the calls: active = viability under 80%; inactive = viability 80% or more
# This is a random part of the about 2,100 reagents, in one setting of the screen. 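Calls flag viability under 80% in either arm, not effects specific to rucaparib; the reference for percent is not stated.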 A number with no mark means an inactive call. A reagent listed more than once was tested more than once; the source does not tell the runs apart. Reagent sequences are not shown. Not stated in the record: the 100% reference.
Target gene,technical replicate,"viability, normalised (%)"
DRD3 (dopamine receptor D3),1,44.9 (active)
DRD3 (dopamine receptor D3),2,42.8 (active)
DRD3 (dopamine receptor D3),3,47.2 (active)
LPP,1,69.4 (active)
LPP,2,66.3 (active)
LPP,3,84.5
GTF2H1 (general transcription factor IIH subunit 1),1,85.7
GTF2H1 (general transcription factor IIH subunit 1),2,82.5
GTF2H1 (general transcription factor IIH subunit 1),3,68.4 (active)
TSSK3 (testis specific serine kinase 3),1,114
TSSK3 (testis specific serine kinase 3),2,88.5
TSSK3 (testis specific serine kinase 3),3,113
POT1 (protection of telomeres 1),1,53.3 (active)
POT1 (protection of telomeres 1),2,63.9 (active)
POT1 (protection of telomeres 1),3,58 (active)
EPHA4 (EPH receptor A4),1,112
EPHA4 (EPH receptor A4),2,117
EPHA4 (EPH receptor A4),3,102

Reagents listed so far with an active call:
Target gene,technical replicate,"viability, normalised (%)"
DRD3 (dopamine receptor D3),1,44.9 (active)
DRD3 (dopamine receptor D3),2,42.8 (active)
DRD3 (dopamine receptor D3),3,47.2 (active)
LPP,1,69.4 (active)
LPP,2,66.3 (active)
GTF2H1 (general transcription factor IIH subunit 1),3,68.4 (active)
POT1 (protection of telomeres 1),1,53.3 (active)
POT1 (protection of telomeres 1),2,63.9 (active)
POT1 (protection of telomeres 1),3,58 (active)

More records follow:
Target gene,technical replicate,"viability, normalised (%)"
LMTK3 (lemur tail kinase 3),1,80 (active)
LMTK3 (lemur tail kinase 3),2,84
LMTK3 (lemur tail kinase 3),3,76.1 (active)
"H1-9P (H1.9 linker histone, pseudogene)",1,38.9 (active)
"H1-9P (H1.9 linker histone, pseudogene)",2,35.3 (active)
"H1-9P (H1.9 linker histone, pseudogene)",3,39.9 (active)
PRKAG2 (protein kinase AMP-activated non-catalytic subunit gamma 2),1,48.7 (active)
PRKAG2 (protein kinase AMP-activated non-catalytic subunit gamma 2),1,95.4
PRKAG2 (protein kinase AMP-activated non-catalytic subunit gamma 2),2,97.9
PRKAG2 (protein kinase AMP-activated non-catalytic subunit gamma 2),2,47.6 (active)
PRKAG2 (protein kinase AMP-activated non-catalytic subunit gamma 2),3,54.6 (active)
PRKAG2 (protein kinase AMP-activated non-catalytic subunit gamma 2),3,58.5 (active)
PCGF2 (polycomb group ring finger 2),1,33.5 (active)
PCGF2 (polycomb group ring finger 2),2,33.9 (active)
PCGF2 (polycomb group ring finger 2),3,42.3 (active)
TNIK (TRAF2 and NCK interacting kinase),1,97.4
TNIK (TRAF2 and NCK interacting kinase),2,117
TNIK (TRAF2 and NCK interacting kinase),3,64.6 (active)
DDX28 (DEAD-box helicase 28),1,70.7 (active)
DDX28 (DEAD-box helicase 28),2,82.7
DDX28 (DEAD-box helicase 28),3,53.9 (active)
